Substitutions are numbered along the chain they refer to. No constants are given. Whether binding was seen depends on the method and setting. Some results given as binding are weak or reduced against the parent protein; the word gives no strength.
B1: N35.6 (antibody, IgG2a, V domains shown)
VH: EVQLVESGGGLVKPGGSLKLSCAASGFTFSDYYMYWVRQTPEKRLEWVATISDGGTYIYYPDSVKGRFTISRDNAKNNLYLQMSSLKSEDTAMYYCVRDIDYDTSYPWFAYWGQGTLVTVSA
VL: RCDIQMTQTTSSLSASLGDRVTISCSASQGISNYLNWYQQKPDGTVKLLIYYTSSLHSGVPSRFSGSGSGTDYSLTINNLEPEDIATYYCQQYSKLPWTFGGGTKLEIKR
B2: N54.4 (antibody, IgG2a, V domains shown)
VH: QVQLQQPGAELVKPGASVKLSCQTSGYTFTSYWMHWVKQRPGQGLEWIGEINPSNGRTNYNEKFKTKATLTVDKSSTTAYIQLNSLTSEDSAVYYCARLRDYGGWGQGTLVTVSA
VL: NIVMTQSPKSVSMSVGERVTLSCKASENVNTFVSWFQQKPDQSPKLLIYGASNRYPGVPDRFTGSGSATEFTLTISSVQAEDLADYHCGQSYSYPYTFGGGTKLEIKR
B3: N50.3 (antibody, IgG2b, V domains shown)
VH: EVLLHQSGPELVKPGASVKIPCKASGYTFTDYNMDWVKQSHGKSLEWIGDINPNNGGTFYNQKFKGKATLTVHKSSSTAFMELRSLTSEDTAVYYCTRSKYDNYPWFAYWGQGTLVTVSA
VL: DIQMTQITSSLSASLGDRVTISCSASQGISNYLNWYQQKPDGTVKLLIYYTSSLHSGVPSRFRGSGSGTNYSLTISNLEPEDIATYYCQQYIKLPWTFGGGTKLEIKR
notes: .3 is the subclone suffix; also called SC1.N50
B4: N53.5 (antibody, IgG1, V domains shown)
VH: QVQLQQSGPELVKPGASVKLSCKASGYTFTNYDINWVKQRPGQGLEWIGWIYPRDGSFKYNEKFKGKATLTVDTSSSTAYMDLHSLTSEDSAVFFCAVSEDGYPWFPYWGQGTLVTVSA
VL: B3 VL with D1G, I7T, R63S, N70D, W96F, G100S

Amino acid sequences for entries named in this document (tags omitted). Residues count along the entry.
UniProt Q8HYX8, residues 33-285: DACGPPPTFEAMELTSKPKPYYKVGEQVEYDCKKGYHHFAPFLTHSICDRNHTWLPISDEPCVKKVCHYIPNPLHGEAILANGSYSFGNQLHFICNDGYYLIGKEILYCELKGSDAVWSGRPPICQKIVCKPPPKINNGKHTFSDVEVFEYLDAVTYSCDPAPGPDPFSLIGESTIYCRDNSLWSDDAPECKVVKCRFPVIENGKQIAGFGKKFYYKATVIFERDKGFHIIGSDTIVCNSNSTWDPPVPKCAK

molecular target: marmoset CD46 homolog (marmoset (Callithrix jacchus)) (UniProt Q8HYX8); assay: ForteBIO, concentration series of recombinant monomeric CD46 homolog

binding, binds:
B1
B2
B3
B4

— patent US20170081419A1 (AbbVie / Abbott, published 2017)
